These results are taken from PubChem BioAssay AID2685 (National Center for Advancing Translational Sciences (NCATS), 2010).

The assay is described as follows: qHTS Assay for Lipid Storage Modulators in Drosophila S3 Cells.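 As to cell number change: cells counted by Cell Tracker Red CMTPX staining in the red channel.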 The conditions noted are these: BODIPY lipid droplet fluorescence, 18-24 h; for cell number change: measured here: cell count max response, cells fed with added oleic acid. Put shortly:
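Laser-scanning cytometry quantifies lipid droplet accumulation (500–530 nm total intensity; droplet/cell object ratio) in oleic acid-fed (400 uM added) Drosophila S3 cells treated with a concentration series. 20 uM Triacsin C defined 100% inhibition.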

Setting [1] is: measured here: cell number channel AC50, cells fed with added oleic acid.
Where [2] appears, read: measured here: lipid fluorescence (Fed channel) AC50, cells fed with added oleic acid.

The other results are listed elsewhere or left out. The main result of the screen is listed elsewhere. These columns were measured beside it and carry no call. Compounds called inactive in the main read-out are mostly missing here. The note in brackets gives the kind of curve behind each potency; many fits are weak.

Usually AC50 stands for the midpoint of the concentration-response curve, whichever way the signal moves. On to `CCn1c(SCC(=O)N2CCCCCC2)nc2c([nH]c3ccccc32)c1=O`, for which the cell number change came to 11.3%. Further, the AC50 under setting [1] was 130 nM [rising, full curve, poor fit]. As for `O=C(Nc1cccn2ncnc12)c1cccc(C(F)(F)F)c1`, the cell number change is -15.8%. For the molecule `CC(=O)N(C)/C=C1\Sc2ccccc2C1=O`, the cell number change was -1.53%. Moreover, the AC50 under setting [2] was 6510 nM [falling, single point]. Regarding `COc1ccc(Nc2nc(N)c([N+](=O)[O-])c(N3CCCC3)n2)cc1`, the cell number change worked out at 11.7%. The AC50 under setting [1] is 651 nM [rising, single point].

For the molecule `Cc1csc(=O)n1CC(=O)OCC(=O)N(CC(C)C)c1c(N)n(Cc2ccccc2)c(=O)[nH]c1=O`, the AC50 runs as follows: under setting [1], 517 nM [falling, full curve, poor fit]; under setting [2], 517 nM [falling, full curve].

As for `O=C(O)C1C2C=CC(C2)C1C(=O)Nc1ccc(C(=O)N2CCCCC2)cc1` (stereo not drawn), the cell number change is 21.6%. Besides, the AC50 under setting [2] is 18400 nM [rising, single point]. Turning to `O=C(NCc1ccc2c(c1)OCO2)C(=O)NCC1OCCN1S(=O)(=O)c1ccc(Br)cc1` (stereo not drawn), the cell number change was -7.62%. Besides, the AC50 under setting [2] was 5010 nM [rising, partial curve]. Turning to `CCC(=O)Nc1ccc(/C(C)=N/NC(=O)c2c(Br)c(C)nn2C)cc1`, the cell number change worked out at 1.98%. Besides, the AC50 under setting [1] is 6510 nM [rising, single point]. The AC50 under setting [2] was 18400 nM [rising, partial curve]. `CC(=O)Nc1ccc(C(=O)OCC(=O)NCc2ccccc2)cc1`: the cell number change was -14.2%. Under setting [2], the concentration at half-maximal activity (AC50) is 794 nM [falling, full curve, poor fit].

Regarding `COC(=O)C1=C(C)NC(C)=C(C(=O)OC)C1C(=O)OC1CCCCC1=O` (stereo not drawn), the cell number change was found to be 19.9%. Also, under setting [2], the AC50 was 29100 nM [falling, single point].

On to `Cc1cc(-c2csc(NC(=O)c3ccc(C#N)cc3)n2)c(C)n1Cc1ccco1`, for which the cell number change was 14.3%. Besides, under setting [2], the AC50 was 7310 nM [rising, partial curve]. Turning to `CCN1CCN(CC(=O)Nc2cc(C)on2)CC1`, the cell number change is -45.7%. In addition, the AC50 under setting [1] is 731 nM [falling, full curve]. The AC50 under setting [2] is 517 nM [falling, full curve].

As for `COc1ccc(C(=O)Nc2ccc(NC(=O)c3ccco3)c(Cl)c2)cc1OC`, the cell number change was -14.3%. The AC50 under setting [2] was 4110 nM [rising, single point]. As to `Cc1cccc(C)c1NC(=O)COC(=O)c1ccc2c(c1)OCO2`, the cell number change is 9.04%. Further, under setting [1], the AC50 is 6510 nM [rising, single point]. Besides, under setting [2], the half-maximal activity concentration (AC50) is 6510 nM [rising, partial curve, poor fit]. In the case of `O=C(CCNC(=O)c1ccco1)Nc1cccc(C(F)(F)F)c1`, the cell number change stood at 42.1%. For the same molecule, under setting [1], the AC50 was 29100 nM [rising, single point].

Turning to `CCc1nc2sccc2c(=O)[nH]1`, the cell number change is -14%. The AC50 under setting [1] is 184 nM [falling, full curve]. Further, the AC50 under setting [2] is 146 nM [falling, partial curve, poor fit]. As for `COCCN(Cc1cn[nH]c1-c1ccc2cc(OC)ccc2c1)C(C)C`, the cell number change is -0.549%. For the same molecule, the AC50 under setting [2] was 20600 nM [rising, partial curve].

In the case of `CC(=O)N1c2c(cc(Br)cc2S(=O)(=O)NCc2ccc(C)cc2)CC1C` (stereo not drawn), the cell number change was determined as 25.7%. Further, the AC50 under setting [2] was 580 nM [falling, single point]. For `COc1ccc(-c2nn3cnnc3s2)cc1OC`, the cell number change amounted to 37.8%. For the same molecule, the AC50 under setting [1] is 18400 nM [rising, single point]. `Cc1c(C(=O)Nc2cnccn2)oc2ccccc12`: under setting [2], the AC50 is 580 nM [rising, single point]. In the case of `Cc1ccccc1N1CCN(C(=O)[C@@H]2CCCN2C2=NS(=O)(=O)c3ccccc32)CC1`, the cell number change was -20.1%. Moreover, under setting [2], the AC50 is 1640 nM [rising, partial curve]. Regarding `O=C(N/N=C/c1ccc2c(c1)OCO2)c1sc2cccc(Cl)c2c1Cl`, the cell number change is 41.6%. Besides, the AC50 under setting [1] was 29100 nM [rising, single point]. In addition, the AC50 under setting [2] is 103 nM [rising, full curve, poor fit]. Take `CCCC(=O)NCCCc1nc2ccccc2n1CC`: the cell number change was -75.5%. Further, under setting [1], the AC50 was 1840 nM [falling, partial curve]. Besides, the AC50 under setting [2] is 2060 nM [falling, partial curve]. Consider `COc1ccc(/C=C2/C(=O)N(c3cccc(F)c3)N=C2C)c(OC)c1`, for which the cell number change was -10.9%. Consider `Cc1ccc(C)c(NC(=O)CN(C)C(=O)CN2C(=O)C3CCCCC3C2=O)c1` (stereo not drawn), for which the cell number change is 38.1%. The AC50 under setting [1] is 29100 nM [rising, single point].

Consider `CCN(CC)CCSc1nc(O)c(-c2ccccc2)c(=O)n1-c1ccccc1`, for which the cell number change amounted to 91.7%. Regarding `CC(C)(C)C(C(=O)Oc1ccccc1)c1ccccc1` (stereo not drawn), the cell number change stood at 7.44%. Moreover, the AC50 under setting [2] is 651 nM [rising, full curve, poor fit]. Take `O=C(CCNC(=O)c1ccccc1)N/N=C/c1ccc([N+](=O)[O-])cc1`: the AC50 reads like this: under setting [1], 2910 nM [rising, single point]; under setting [2], 146 nM [falling, full curve, poor fit].

Regarding `O=C1CC(Sc2ncccc2C(=O)O)C(=O)N1` (stereo not drawn), the cell number change is -49.4%. The AC50 under setting [1] is 16400 nM [falling, single point]. Under setting [2], the concentration at half-maximal activity (AC50) is 103 nM [falling, full curve, poor fit]. Regarding `O=C1CCC(=O)N1c1ccc(NCCc2cccc(F)c2)c([N+](=O)[O-])c1`, the cell number change turned out to be 14.6%. Under setting [2], the AC50 is 11.6 nM [rising, full curve, poor fit]. Turning to `CCOC(=O)c1ccc(NC(=O)CC2C(=O)N(c3cccc(OC)c3)C(=O)N2CCOC)cc1` (stereo not drawn), the cell number change is 26.3%.

As for `Cc1ccc(NC(=O)[C@H](CC(C)C)NC(=O)[C@@H]2Cc3ccccc3CN2)cc1`, the cell number change was -33.8%. Besides, the AC50 under setting [1] is 29100 nM [falling, single point]. For `CC(=O)Nc1ccc(S(=O)(=O)NNC(=O)c2ccc(C)cc2)cc1`, the AC50 under setting [2] was 651 nM [rising, single point]. As for `Cc1ccc(C)c(S(=O)(=O)Nc2ccc(C(=O)NCC(c3ccco3)N(C)C)cc2)c1` (stereo not drawn), the cell number change was found to be 96.8%. Besides, the AC50 under setting [1] is 14600 nM [rising, partial curve]. In the case of `CCc1noc(C)c1C(=O)Nc1ccc(Cl)c(S(=O)(=O)N2CCCCC2)c1`, the cell number change was found to be 175%. For the same molecule, the AC50 under setting [1] was 23100 nM [rising, partial curve].

With `CC(C)(Cc1ccc(O)cc1)NC(=O)CC(=O)N=Nc1c(O)[nH]c2ccc(Br)cc12`, the cell number change is -7.51%. As to `CC(=O)c1cccc(NC(=O)CCCOc2ccc(C)cc2)c1`, the AC50 under setting [2] is 92 nM [falling, full curve, poor fit].
